PubChem BioAssay AID1224828, NIAID, 2016

Purpose: 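Regulators linking TLR4 signalling to p65 nuclear translocation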 (primary screen)
Cell system: mouse RAW264.7 G9 macrophage reporter cells (GFP-p65, Tnf promoter-mCherry)
Reagents: siRNA pool against mouse genes, 100 nM
Time to read-out: 2 days siRNA transfection, then 40 min LPS before fixation
Treatment: LPS (Salmonella minnesota R595) at 10 ng/ml
Measured: 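Microscopy ratio of nuclear to perinuclear-ring GFP-p65 signal, scaled to the plate median; gene score is the average of two replicate robust z-scores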
Direction: p65 translocation robust z-score: higher = more nuclear NF-kappaB p65 after LPS than the plate median; nuclear/cytoplasmic p65 ratio: higher = more nuclear NF-kappaB p65
Rule for the call: 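Active if robust z is above 3.3 (negative regulators) or below -1.56, the Tlr4 control median (positive regulators); activity score 50 or more; control wells not called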
Calls: active = hit (p65 shift raised or lowered); inactive = no clear change
This is one part, drawn at random, of about 17,000 deposited reagents. 762 of all reagents (4.5%) were called active. 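Active calls include both raised and lowered p65 entry, mostly lowered; wells with fewer than 50 cells lack a z-score.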 Raw values are not corrected between plates. Unmarked entries are inactive.

Smn1 (survival motor neuron 1) — p65 translocation robust z-score: 0.58; nuclear/cytoplasmic p65 ratio, rep 1: 1.51; nuclear/cytoplasmic p65 ratio, rep 2: 1.76; low cell count flag: enough cells to score
Tiaf2 (TGF-beta1-induced anti-apoptotic factor 2) — p65 translocation robust z-score: -0.54; nuclear/cytoplasmic p65 ratio, rep 1: 1.25; nuclear/cytoplasmic p65 ratio, rep 2: 1.17; low cell count flag: enough cells to score
Cpq (carboxypeptidase Q) — p65 translocation robust z-score: -1.33; nuclear/cytoplasmic p65 ratio, rep 1: 1.26; nuclear/cytoplasmic p65 ratio, rep 2: 1.06; low cell count flag: enough cells to score
Hadha — p65 translocation robust z-score: 1.09; nuclear/cytoplasmic p65 ratio, rep 1: 1.53; nuclear/cytoplasmic p65 ratio, rep 2: 1.53; low cell count flag: enough cells to score
Dnase1 (deoxyribonuclease I) — p65 translocation robust z-score: -0.05; nuclear/cytoplasmic p65 ratio, rep 1: 1.42; nuclear/cytoplasmic p65 ratio, rep 2: 1.41; low cell count flag: enough cells to score
Ctnnbl1 (catenin, beta like 1) — p65 translocation robust z-score: 1.12; nuclear/cytoplasmic p65 ratio, rep 1: 1.65; nuclear/cytoplasmic p65 ratio, rep 2: 1.5; low cell count flag: enough cells to score
Zbtb6 (zinc finger and BTB domain containing 6) — p65 translocation robust z-score: 1.11; nuclear/cytoplasmic p65 ratio, rep 1: 1.95; nuclear/cytoplasmic p65 ratio, rep 2: 1.61; low cell count flag: enough cells to score
Lzts2 (leucine zipper, putative tumor suppressor 2) — p65 translocation robust z-score: 0.16; nuclear/cytoplasmic p65 ratio, rep 1: 1.74; nuclear/cytoplasmic p65 ratio, rep 2: 1.57; low cell count flag: enough cells to score
Jag2 (jagged 2) — p65 translocation robust z-score: 2.77; nuclear/cytoplasmic p65 ratio, rep 1: 1.83; nuclear/cytoplasmic p65 ratio, rep 2: 1.76; low cell count flag: enough cells to score
Prr5l (proline rich 5 like) — p65 translocation robust z-score: 0.19; nuclear/cytoplasmic p65 ratio, rep 1: 1.43; nuclear/cytoplasmic p65 ratio, rep 2: 1.26; low cell count flag: enough cells to score
Kcna2 — p65 translocation robust z-score: -0.61; nuclear/cytoplasmic p65 ratio, rep 1: 1.38; nuclear/cytoplasmic p65 ratio, rep 2: 1.31; low cell count flag: enough cells to score
Fbxw5 (F-box and WD-40 domain protein 5) — p65 translocation robust z-score: 1.73; nuclear/cytoplasmic p65 ratio, rep 1: 1.8; nuclear/cytoplasmic p65 ratio, rep 2: 1.74; low cell count flag: enough cells to score
Usp3 (ubiquitin specific peptidase 3) — p65 translocation robust z-score: 0.25; nuclear/cytoplasmic p65 ratio, rep 1: 1.64; nuclear/cytoplasmic p65 ratio, rep 2: 1.45; low cell count flag: enough cells to score
Ubxn6 (UBX domain protein 6) — p65 translocation robust z-score: 0.52; nuclear/cytoplasmic p65 ratio, rep 1: 1.49; nuclear/cytoplasmic p65 ratio, rep 2: 1.26; low cell count flag: enough cells to score
Phldb2 (pleckstrin homology like domain, family B, member 2) — p65 translocation robust z-score: 0.44; nuclear/cytoplasmic p65 ratio, rep 1: 1.53; nuclear/cytoplasmic p65 ratio, rep 2: 1.29; low cell count flag: enough cells to score
Fam78b (family with sequence similarity 78, member B) — p65 translocation robust z-score: 0.33; nuclear/cytoplasmic p65 ratio, rep 1: 1.47; nuclear/cytoplasmic p65 ratio, rep 2: 1.78; low cell count flag: enough cells to score
Defb1 (defensin beta 1) — p65 translocation robust z-score: 0.4; nuclear/cytoplasmic p65 ratio, rep 1: 1.45; nuclear/cytoplasmic p65 ratio, rep 2: 1.78; low cell count flag: enough cells to score
Arhgap8 (Rho GTPase activating protein 8) — nuclear/cytoplasmic p65 ratio, rep 1: 1.36; nuclear/cytoplasmic p65 ratio, rep 2: 1.39; low cell count flag: fewer than 50 cells per well; well left out of scoring
Cryba4 (crystallin, beta A4) — p65 translocation robust z-score: -1.3; nuclear/cytoplasmic p65 ratio, rep 1: 1.32; nuclear/cytoplasmic p65 ratio, rep 2: 1.2; low cell count flag: enough cells to score
Serinc2 (serine incorporator 2) — nuclear/cytoplasmic p65 ratio, rep 1: 1.37; nuclear/cytoplasmic p65 ratio, rep 2: 1.23; low cell count flag: fewer than 50 cells per well; well left out of scoring
Lrrc28 (leucine rich repeat containing 28) — nuclear/cytoplasmic p65 ratio, rep 1: 1.63; nuclear/cytoplasmic p65 ratio, rep 2: 1.8; low cell count flag: fewer than 50 cells per well; well left out of scoring
